Measurements as given in the supplement of paper PMC6924143.
The data scatter; read single values as rough.

Tested on: RAW-Blue (mouse TLR9 reporter, RAW 264.7)
Assay: mTLR9 reporter activity (SEAP, QUANTI-Blue absorbance) (OD650); higher = stronger mouse TLR9 activation
Settings: 3 h
Protocol: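 Synthetic single-stranded 24-mer CpG ODNs were diluted in saline and added to mouse RAW-Blue cells (RAW 264.7 with an NF-kB/AP-1-inducible SEAP reporter; endogenous mouse TLR9), about 1e5 cells/well. After 3 h, SEAP in the supernatant was read with QUANTI-Blue as absorbance at 650 nm. ODN concentration and backbone chemistry are not stated; activity of 0.4 or above is the paper's high-activity class.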

With TATACACGTTGAGCGCGTTGTGTT [ODN088] the mTLR9 reporter activity was 0.455.
With TCGGCCCCGTCAGCGTTACGCTTG [mODN049] the mTLR9 reporter activity was 0.9.
In the case of TCGCGCGTCGATTGTCGTCTCGTT [ODN166], the mTLR9 reporter activity is reported as 0.194.
Work on TCCGCTTCGGGCGACCGCTTGTCA [mODN036] yielded a mTLR9 reporter activity of 0.24.
For TTTCGCGAGCACTGCAAGCGCGTT [ODN109], the mTLR9 reporter activity was 0.1.
For TCATCCCGGTTACGCGGGCTTCGA [mODN043], the mTLR9 reporter activity was 0.26.
With TCGGGCCGTCAGCGTTCTCATTCG [mODN047] the mTLR9 reporter activity was 1.03.
Sequence TGTCTGCGCGCGCGATGTCTGTTT [ODN120] has a mTLR9 reporter activity of 0.073.
For TGCGCGTCTGCGATTCGCTTCGTT [ODN133], the mTLR9 reporter activity was 0.176.
Sequence TGTGATGCGACGCGTGAGTTCTTT [ODN086] has a mTLR9 reporter activity of 0.15.
For TTTTGCGCGTGAGCGTGCGTTTTT [ODN009], the mTLR9 reporter activity was 0.362.
In the case of TGTTTTGTAGCGCGCTGCTTTTGT [ODN044], the mTLR9 reporter activity is reported as 0.28.
TCGCTCTCGTTGTGTTCGCGTAGT [ODN165] gave a mTLR9 reporter activity of 0.251.
In the case of TCGTTCGTCGCTGCGTCGTGTTCT [ODN202], the mTLR9 reporter activity is reported as 0.263.
In the case of TCGAGTTCCGCGCGCGGTCTTCCC [mODN054], the mTLR9 reporter activity is reported as 0.51.
For TCGGCCTTTCTCGGCGCTTCGCGA [mODN067], the mTLR9 reporter activity was 0.51.
With TCCGACGTTCCGTTGGCGACGCGG [mODN95] the mTLR9 reporter activity was 0.87.
TGTGCGCGTTCTTCGTCGCGAGTT [ODN161] was tested, and the mTLR9 reporter activity was 0.216.
TCGCGCGTGCTGTGAGCGCGTTTT [ODN188] was tested, and the mTLR9 reporter activity was 0.13.
TCCGGCTGTTCGCGTGGCACGTTC [mODN91] showed a mTLR9 reporter activity of 0.55.
In the case of TCCGTTCCCGGACGCGGTCCGGTT [mODN070], the mTLR9 reporter activity is reported as 0.47.
TCCCGTCGTATTGCCCGGCCGTTG [mODN100] showed a mTLR9 reporter activity of 0.48.
For TCTTGCGCGCTATGTCGCGTTGTT [ODN184], the mTLR9 reporter activity was 0.115.
Work on TGAGTCGTTGTGTCGCGCGCGTGT [ODN153] yielded a mTLR9 reporter activity of 0.415.
TTTTGCGCGACGTGCTTTTGTTGT [ODN007] gave a mTLR9 reporter activity of 0.178.
In the case of TCCCGCGGTGCGTCGCGATTCTTA [mODN71], the mTLR9 reporter activity is reported as 0.47.
For TGCGTGCGTCTAGTTGCAGCGCTT [ODN082], the mTLR9 reporter activity was 0.139.
Sequence TCAGGCCCGCGCTTCGTTGCGCGT [mODN-007] has a mTLR9 reporter activity of 0.34.
TCGTTTGTTCGTCTTGCGTGTCGT [ODN570] was tested, and the mTLR9 reporter activity was 0.241.
Sequence TCGCAGACTTCCGCGCCTTGCGGA [mODN-003] has a mTLR9 reporter activity of 0.28.
Sequence TCGGCGCTTCACCCGTGCGTTGAC [mODN046] has a mTLR9 reporter activity of 1.
With TTCGCTGCGTCGCGTGTGCATCTT [ODN245] the mTLR9 reporter activity was 0.183.
TGCTCTGTTCGCGCGTCGCAGTGT [ODN258] was tested, and the mTLR9 reporter activity was 0.136.
Work on TCGTCTTGATCAGCGGCGCGCCTT [mODN79] yielded a mTLR9 reporter activity of 0.49.
Sequence TCTCGCGACGCAGCGCGAGCGATT [ODN091] has a mTLR9 reporter activity of 0.155.
TGTACTCAGAGCAGCGCTGCGTTT [ODN094] was tested, and the mTLR9 reporter activity was 0.115.
